We go through two molecules from article PMC3540084.

Assay in all cases: co-IP; cytosols of cultured HL-1 cardiomyocytes after 6 hr hypoxia; polyclonal Abs to IL-1Ra, caspases or control IL-1beta coupled to Sepharose beads plus protein A/G; precipitates washed in PBS; Western blot with monoclonal Abs; IP compared to unbound (free) supernatant proteins
On the technique in general: A western blot detects proteins with antibodies after separation by electrophoresis.

In assay [1] the target is T1, secreted IL-1Ra isoform (mouse interleukin-1 receptor antagonist) (mouse (endogenous in HL-1)) (UniProt P25085).
T1 sequence: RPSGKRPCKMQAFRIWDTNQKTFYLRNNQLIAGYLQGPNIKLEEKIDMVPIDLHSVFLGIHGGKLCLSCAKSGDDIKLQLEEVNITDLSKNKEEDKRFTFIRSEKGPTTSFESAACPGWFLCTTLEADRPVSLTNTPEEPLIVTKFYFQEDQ

The target of assay [2] is T2, caspase-7 (mouse) (mouse (endogenous in HL-1)) (UniProt P97864).
T2 sequence: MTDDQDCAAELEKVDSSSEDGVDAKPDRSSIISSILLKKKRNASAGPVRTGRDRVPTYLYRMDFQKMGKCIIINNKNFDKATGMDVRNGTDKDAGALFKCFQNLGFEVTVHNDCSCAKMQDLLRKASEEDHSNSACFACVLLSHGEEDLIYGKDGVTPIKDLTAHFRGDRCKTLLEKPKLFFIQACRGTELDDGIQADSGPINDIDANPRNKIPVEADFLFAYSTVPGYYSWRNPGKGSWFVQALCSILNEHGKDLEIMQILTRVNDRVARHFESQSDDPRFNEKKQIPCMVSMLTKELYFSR

Assay [3] concerns the target T3, caspase-3 (mouse) (mouse (endogenous in HL-1)) (UniProt P70677).
T3 sequence: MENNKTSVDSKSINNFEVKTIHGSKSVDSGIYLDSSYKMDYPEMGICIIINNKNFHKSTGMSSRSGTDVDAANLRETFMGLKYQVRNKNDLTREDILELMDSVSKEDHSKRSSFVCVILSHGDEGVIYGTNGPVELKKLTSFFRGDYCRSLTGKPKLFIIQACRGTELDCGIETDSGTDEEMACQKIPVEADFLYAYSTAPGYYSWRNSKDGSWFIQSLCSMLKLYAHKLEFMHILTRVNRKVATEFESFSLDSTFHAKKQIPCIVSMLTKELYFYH

Assay [4] has as its target T4, caspase-6 (mouse) (mouse (endogenous in HL-1)) (UniProt O08738).
T4 sequence: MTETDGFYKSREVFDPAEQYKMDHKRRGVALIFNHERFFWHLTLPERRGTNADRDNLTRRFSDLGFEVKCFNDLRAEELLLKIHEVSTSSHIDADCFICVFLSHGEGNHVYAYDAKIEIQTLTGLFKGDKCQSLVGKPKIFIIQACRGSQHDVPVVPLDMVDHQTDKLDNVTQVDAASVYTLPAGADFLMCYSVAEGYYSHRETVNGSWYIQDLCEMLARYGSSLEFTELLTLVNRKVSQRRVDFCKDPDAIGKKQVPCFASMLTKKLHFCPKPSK

Results are given in words; binding and its absence hold for the method and conditions named. Binding seen in cells or lysates may run through a third protein. Some results given as binding are weak or reduced against the parent protein; the word gives no strength. Where a sequence is shown, tags or fusion partners need not be part of it.

B1: IL-1R1 ancillary protein (mouse) (receptor, UniProt Q61730 21-570)
chain: SERCDDWGLDTMRQIQVFEDEPARIKCPLFEHFLKYNYSTAHSSGLTLIWYWTRQDRDLEEPINFRLPENRISKEKDVLWFRPTLLNDTGNYTCMLRNTTYCSKVAFPLEVVQKDSCFNSAMRFPVHKMYIEHGIHKITCPNVDGYFPSSVKPSVTWYKGCTEIVDFHNVLPEGMNLSFFIPLVSNNGNYTCVVTYPENGRLFHLTRTVTVKVVGSPKDALPPQIYSPNDRVVYEKEPGEELVIPCKVYFSFIMDSHNEVWWTIDGKKPDDVTVDITINESVSYSSTEDETRTQILSIKKVTPEDLRRNYVCHARNTKGEAEQAAKVKQKVIPPRYTVELACGFGATVFLVVVLIVVYHVYWLEMVLFYRAHFGTDETILDGKEYDIYVSYARNVEEEEFVLLTLRGVLENEFGYKLCIFDRDSLPGGIVTDETLSFIQKSRRLLVVLSPNYVLQGTQALLELKAGLENMASRGNINVILVQYKAVKDMKVKELKRAKTVLTVIKWKGEKSKYPQGRFWKQLQVAMPVKKSPRWSSNDKQGLSYSSLKNV
For the molecule B1, in assay [1], the binding result was “no binding”.

B2: secreted IL-1Ra isoform (mouse interleukin-1 receptor antagonist) (protein, UniProt P25085 27-178)
chain: T1 sequence
Consider B2, for which the binding entry in assay [2] is recorded as “binds weakly”; in assay [3], “binds”; in assay [4] it was “binds weakly”.
